PubChem BioAssay AID1347075 (National Center for Advancing Translational Sciences (NCATS), 2019)
About 5,500 (1.4%) of roughly 400,000 compounds were called active. The inconclusive results got no clear call from the source; some entries with a clear call stand among them for comparison. Calls come from the whole dose curve; as a rule, active = well fitted cell-killing curve with a large enough effect; inconclusive = small, poorly fitted or top-dose-only effect, or effect the other way; inactive = flat fitted curve, though single readings scatter. Where the call is inconclusive, the potency comes from a doubtful curve fit.

Experiment: qHTS assay for MDR1-selective chemotherapeutics: Primary screen using the parental adenocarcinoma cell KB-3-1; note: nearly all actives have a fitted effect of over 60% in size
Conditions: KB-3-1 viability, CellTiter-Glo ATP luminescence, 72 h; activity change, negative = cytotoxic: at 46.1 µM (top of the series)
How it was run: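 Luminescent ATP read-out (CellTiter-Glo) measures survival of drug-naive KB-3-1 cells after 72 h compound exposure at 37 °C. Titration series was screened from lowest to highest concentration, with DMSO vehicle plates as background controls.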
% is set by controls: 0 for no effect and ±100 for the full control effect; potency is the fitted concentration of half-maximal effect.

| SMILES | Potency | activity change, negative = cytotoxic |
| --- | --- | --- |
| Cc1cc2nc(/N=C(\N)NC(=O)C(C)C)nc(C)c2cc1C | active: 14.6 µM | – |
| O=C1OCC/C1=C1/NCCNC1=O | inconclusive: 5.8 µM [rising, full curve] | – |
| O=c1c2cc(NC(=S)NC3CCCC3)ccc2nc2n1CCCCC2 | – | inactive: -7.43% |
| Cc1nn(C)c(C)c1S(=O)(=O)N1CCCC(C(=O)N2CCN(c3ccccc3)CC2)C1 (stereo not given) | inconclusive: 25.9 µM [cytotoxic, single point] | – |
| CCCCCC[n+]1ccccc1/C=C/c1ccc(N(C)C)cc1 | inconclusive: 1.3 µM [cytotoxic, full curve, poor fit] | – |
| Cn1c(-c2cccs2)nc2ccccc21 | – | inactive: -2.53% |
| COc1ccc(C(=O)N2CCN(S(=O)(=O)c3ccc(C)cc3C)CC2)cc1OC | – | inactive: -1.59% |
| O=C(Nc1ccccc1OC(=O)c1ccccc1)c1ccccc1 | inconclusive: 29.1 µM [cytotoxic, partial curve, poor fit] | – |
| CCOC(=O)/C=C/C(=O)OCC(=O)N1CCN(C(=O)c2ccco2)CC1 | inconclusive: 13 µM [cytotoxic, partial curve] | – |
| CCOC(=O)CSC1=C(C#N)C(c2ccco2)C(C(=O)OCc2ccccc2)=C(C)N1 (stereo not given) | inconclusive: 23.1 µM [cytotoxic, single point] | – |
| COc1ccc(-c2ccc3[nH]c4c(c3c2)CCN2C(=O)[C@@H]([C@H](C)O)[C@@H](N(C)C(=O)Nc3ccccc3)C[C@@H]42)cc1 | inconclusive: 29.1 µM [cytotoxic, single point] | – |
| COc1cc(OC)c(OC)cc1/C=C/c1nc2cc3ccccc3cc2c(=O)n1-c1ccc(F)c(Cl)c1 | inconclusive: 5.8 µM [cytotoxic, partial curve] | – |
| Cc1cnc(NC(=O)CC(C)c2ccccc2)s1 (stereo not given) | active: 20.6 µM | – |
| CC(C)(C)c1ccc(C(=O)NCc2cccnc2)cc1 | – | inactive: 0.541% |
| Cn1c(C(=O)N2CCCC(C(=O)NCCc3ccccc3)C2)cc2sccc21 (stereo not given) | inconclusive: 23.1 µM [cytotoxic, single point] | – |
| Cn1c(NCC(O)c2ccccc2)nc2c1c(=O)n(Cc1ccc(Cl)c(Cl)c1)c(=O)n2C (stereo not given) | inconclusive: 32.6 µM [cytotoxic, single point] | – |
| COCCNC(=O)c1cccc(OC2CCN(Cc3ccc(C(=O)OC)cc3)CC2)c1 | inconclusive: 20.6 µM [cytotoxic, single point] | – |
| COC(=O)CN(c1cccc(F)c1)S(C)(=O)=O | inconclusive: 23.1 µM [rising, partial curve, poor fit] | – |
| CCN[C@H]1C[C@H](C)S(=O)(=O)c2sc(S(N)(=O)=O)cc21 | inconclusive: 0.058 µM [rising, full curve] | – |
| Cc1ccc2c(c1)c(/C=C/c1cc[n+](C)cc1)c(C)n2C | inconclusive: 29.1 µM [cytotoxic, single point] | – |
| N#Cc1ccsc1NC(=O)c1ccc(Cl)c([N+](=O)[O-])c1 | – | inactive: 17.5% |
| Cc1ccc(NC(=O)c2c(Cl)n(C)c3ccccc23)cc1 | inconclusive: 29.1 µM [cytotoxic, single point] | – |
| COc1ccccc1C(=O)N(Cc1nc(-c2ccc(Cl)cc2)no1)C(C)C | inconclusive: 18.4 µM [cytotoxic, single point] | – |
| O=C(NCCCCCCNC(=O)c1ccccc1O)c1ccccc1O | inconclusive: 18.4 µM [cytotoxic, single point] | – |

Individual results from above.
In Potency, COc1cc(OC)c(OC)cc1/C=C/c1nc2cc3ccccc3cc2c(=O)n1-c1ccc(F)c(Cl)c1 has inconclusive: 5.8 µM [cytotoxic, partial curve]
In Potency, Cc1cc2nc(/N=C(\N)NC(=O)C(C)C)nc(C)c2cc1C has active: 14.6 µM

Further records:

| SMILES | Potency | activity change, negative = cytotoxic |
| --- | --- | --- |
| CC(=O)Nc1ccc(S(=O)(=O)NCCSCc2c(Cl)cccc2Cl)cc1 | active: 9.2 µM | – |
| O=C(/C=C/c1ccco1)NC(=S)Nc1cccc([N+](=O)[O-])c1 | inconclusive: 29.1 µM [cytotoxic, single point] | – |
| O=S(=O)(NC1c2cccc3cccc(c23)C1Sc1ncccn1)c1ccc(Cl)cc1 (stereo not given) | inconclusive: 18.4 µM [cytotoxic, single point] | – |
| CCN(CC)CCNc1c(C)cc(CO)c(Cl)c1C | inconclusive: 25.9 µM [cytotoxic, partial curve, poor fit] | – |
| COc1ccc(C(C(=O)NC(C)(C)C)N(CCO)C(=O)CCC(=O)Nc2cc(C)on2)cc1 (stereo not given) | – | inactive: -2.93% |
| CC(C)CC(=O)n1nc(-c2cccnc2)nc1NCc1ccc(F)cc1 | – | inactive: -23% |
| C/C(=N/NS(=O)(=O)c1ccc(Cl)cc1)c1cccc(NC(=O)c2ccc(Cl)cc2Cl)c1 | inconclusive: 8.2 µM [cytotoxic, single point] | – |
| Cc1ccccc1NC(=O)c1cccc2nc3ccccc3nc12 | inconclusive: 18.4 µM [cytotoxic, single point] | – |
| Cc1nnc(SCc2ccc(Cl)cc2)nc1/C=C/N(C)C | – | inactive: 0.574% |
| Cc1ccc([C@@H]2CC=C(C(=O)O)[C@H](c3ccc(F)cc3)N2S(=O)(=O)c2ccccc2C)cc1 | – | inactive: 0% |
| COc1ccc2c(c1)[C@H]1[C@H](CO2)[C@H](c2ccccc2)[C@]2(C)C(=O)Nc3cc(OC)c(OC)cc3C(=O)N12 | inconclusive: 16.4 µM [cytotoxic, partial curve, poor fit] | – |
| CCN(CC)Cc1cc(Nc2c3ccccc3nc3c4ccccc4n(C)c23)cc(CN(CC)CC)c1O | inconclusive: 25.9 µM [cytotoxic, single point] | – |
| Cc1c(C(=O)NCCCN2CCCCC2)oc2ccc3c(c12)C(O)CC1(CCCCC1)O3 (stereo not given) | inconclusive: 20.6 µM [cytotoxic, single point] | – |
| CC1CCN(C(=O)CCNS(=O)(=O)c2ccc3c(c2)c(=O)n(C)c(=O)n3C)CC1 | – | inactive: 1.91% |
| COc1ccc(NC(=O)CSc2nnc(CNC(=O)COc3ccc(Cl)cc3)o2)cc1 | – | inactive: -0.052% |
| COc1cc(C)c(CN2CCN(S(=O)(=O)c3ccc(Cl)s3)CC2)cc1OC | inconclusive: 20.6 µM [cytotoxic, partial curve, poor fit] | – |
| COc1ccccc1N1CC(C)(C)C(=O)N(C(=O)c2ccc(C)cc2)C1=S | inconclusive: 20.6 µM [rising, partial curve, poor fit] | – |
| Cc1cc(Br)cn2c(Cc3ccccc3)c(-c3ccccc3)nc12 | inconclusive: 25.9 µM [cytotoxic, single point] | – |
| COc1ccc(O)c(/C=N/NC(=O)c2ccc(OCc3cccc(Br)c3)cc2)c1 | inconclusive: 14.6 µM [cytotoxic, partial curve] | – |
| C=CC[C@@H](CC(=O)N(CCO)Cc1ccccc1)C(=O)N[C@@H](COC(=O)[C@H](CC=C)CC(=O)OC(C)(C)C)Cc1c[nH]c2ccccc12 | inconclusive: 20.6 µM [cytotoxic, single point] | – |
| CCOC(=O)c1ccc(NC(=O)Nc2cccc(C)n2)cc1 | – | inactive: -2.55% |
| COc1cc2c(cc1OC)C(C)N(C(=O)c1ccc(Cl)c(S(=O)(=O)N3CCCCC3)c1)CC2 (stereo not given) | active: 11.6 µM | – |
| CCCCCC(=O)N1CC2(C)CN(C(=O)CCCCC)CC(C)(C1)C2=O | – | inactive: 19% |
| c1ccc(CN(Cc2ccccc2)Cc2nnc(-c3cc4ccccc4[nH]3)s2)cc1 | inconclusive: 29.1 µM [cytotoxic, single point] | – |

Part of the list above, in CSV form.
SMILES,Potency,"activity change, negative = cytotoxic"
O=C(NCCCCCCNC(=O)c1ccccc1O)c1ccccc1O,"inconclusive: 18.4 µM [cytotoxic, single point]",–
CC(=O)Nc1ccc(S(=O)(=O)NCCSCc2c(Cl)cccc2Cl)cc1,active: 9.2 µM,–

(more compounds)

| SMILES | Potency | activity change, negative = cytotoxic |
| --- | --- | --- |
| Cc1nn(-c2ccccc2)c(N2CCCC2)c1/C=N/NC(=O)c1cc2ccccc2cc1O | inconclusive: 23.1 µM [cytotoxic, single point] | – |
| CCCCOc1ccc(CNC(=S)N/N=C/c2ccc(OC)c(OC)c2)cc1 | inconclusive: 16.4 µM [cytotoxic, single point] | – |
| C/C(=N/NS(=O)(=O)c1ccccc1)c1ccc(NC(=O)C2CC2)cc1 | – | inactive: 0.968% |
| Cc1noc(C)c1C(=O)OCC(=O)Nc1cccc(S(N)(=O)=O)c1 | inconclusive: 9.2 µM [rising, partial curve] | – |
| O=c1cc(O)n(-c2ccc(Cl)cc2)c(=S)[nH]1 | – | inactive: -8.85% |
| CCOC(=O)c1sc(NC(=S)NC(=O)CC(C)C)cc1C | – | inactive: -23.5% |
| CCN(CC)CCCNc1oc(-c2ccccc2[N+](=O)[O-])nc1C#N | inconclusive: 0.0259 µM [rising, full curve] | – |
| Cc1cc(C)cc(NS(=O)(=O)c2ccc3[nH]cc(C(=O)NC4CCCCC4)c(=O)c3c2)c1 | – | inactive: 0% |
| Cc1ccc2cc(CN(CC(C)C)S(=O)(=O)c3cccc4nonc34)c(=O)[nH]c2c1 | – | inactive: -11.4% |
| CCOc1ccc(-c2cc(C(=O)NCc3ccccc3Cl)c3ccccc3n2)cc1 | – | inactive: 3.26% |
| Cc1ccc(NC(=O)Cn2c(O)c(N=NC(N)=O)c3ccccc32)cc1 | inconclusive: 18.4 µM [cytotoxic, partial curve, poor fit] | – |
| O=c1cc(-c2ccc(O)cc2)oc2c1ccc1ccccc12 | – | inactive: -7.6% |
| O=C(Nc1ccccc1)c1nnsc1S(=O)c1ccc(Cl)cc1 (stereo not given) | inconclusive: 29.1 µM [cytotoxic, single point] | – |
| Clc1ccc2ncc(-c3nnnn3-c3ccccc3)c(-c3ccccc3)c2c1 | inconclusive: 25.9 µM [cytotoxic, single point] | – |
| CCCNC(=O)c1cc(C2CCCN(C(=O)C3CC3)C2)on1 (stereo not given) | – | inactive: 0% |
| CCN(C(=O)Nc1cn(CC(C)C)c(=O)c2ccccc12)c1cc(C)ccc1C | – | inactive: 10.2% |
| OC(Cc1cccc(Br)c1)c1ncc(-c2cccc(C(F)(F)F)c2)[nH]1 (stereo not given) | inconclusive: 29.1 µM [cytotoxic, single point] | – |
| COc1ccc(CCN2C(=S)N(C)C(=O)C2CC(=O)Nc2ccc(OC)cc2)cc1 (stereo not given) | – | inactive: -4.71% |
| CCCCCc1c(CC)ncn1CCc1ccccc1OC | active: 16.4 µM | – |
| COc1ccccc1N(CC1CO1)S(=O)(=O)c1ccccc1 (stereo not given) | – | inactive: 1.52% |
| COc1cc(C(=O)N/N=C/c2ccsc2C)cc(OC)c1OC | active: 0.651 µM | – |
| CCOc1ccc(S(=O)(=O)N2CCN(CC(O)COc3cccc([N+](=O)[O-])c3)CC2)cc1 (stereo not given) | – | inactive: 10.5% |
